Experimental data reported in patent US20200291444A1 (Oxford University Innovation LTD, priority 2017, published 2020).

Experiment: general procedure: Fmoc solid-phase peptide synthesis; Chem-Matrix Rink amide resin (~0.5 mmol/g); HBTU/DIEA and DIC/oxyma pure (double coupling)
Settings: whole synthesis

In the case of FSA-8Aoc-SKPIQT-NH2, the isolated yield is reported as 70% and the “final HPLC purity” value is reported as 95%.

In the case of VGAG-8Aoc-FPIQT-NH2, the isolated yield is reported as 62% and the “final HPLC purity” value is reported as 99%.
